Source: paper PMC2894085
No constants are given. Whether binding was seen depends on the method and setting. In cells and extracts the contact can be indirect. Some results given as binding are weak or reduced against the parent protein; the word gives no strength.

The chains behind the UniProt entries cited, without tags or fusion partners.
UniProt P12520: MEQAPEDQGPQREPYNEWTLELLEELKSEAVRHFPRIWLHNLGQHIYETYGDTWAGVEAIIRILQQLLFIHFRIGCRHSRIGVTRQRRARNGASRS
UniProt O74803: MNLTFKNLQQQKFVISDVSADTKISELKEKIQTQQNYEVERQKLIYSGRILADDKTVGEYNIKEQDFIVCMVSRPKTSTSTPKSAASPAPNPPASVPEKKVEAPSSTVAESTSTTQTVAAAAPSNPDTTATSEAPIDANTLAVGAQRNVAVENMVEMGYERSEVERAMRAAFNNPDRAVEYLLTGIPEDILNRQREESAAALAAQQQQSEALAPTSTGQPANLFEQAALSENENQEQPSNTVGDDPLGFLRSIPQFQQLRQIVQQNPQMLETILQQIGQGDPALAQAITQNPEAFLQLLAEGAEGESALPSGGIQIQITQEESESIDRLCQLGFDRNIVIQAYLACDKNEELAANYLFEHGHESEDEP

Tests used:
[1] = biological target: Vpr expressed in fission yeast cells (glycerol gradient) (HIV-1) (UniProt P12520); assay: co-sedimentation; extracts of fission yeast cells expressing vpr, centrifugation on a 10-40% glycerol gradient; fractions blotted with anti-Vpr and anti-Mts4
[2] = biological target: HA-tagged Rhp23 expressed in fission yeast (fission yeast (Schizosaccharomyces pombe)) (UniProt O74803); assay: co-IP; fission yeast lysates, anti-HA antibody overnight at 4°C, protein A-agarose beads, washed with PBS; blots with anti-Mts2 or anti-Mts4; HA-Rhp23 with or without vpr expression

B1: Mts4, subunit 2 (S2) of the 19S regulatory complex of the fission yeast 26S proteasome (protein, UniProt P87048 1-891)
chain: MSSKDISSKSPSGNDALNDKKGTKTSETNDRNSTNNTKERDELEDLSEEDLQLKNDLELLVQAVQDATPELVGSSLTQLKEIIRTSTSSMTAVPKPLKFLRPHYFTLVKIYDSWPQSPQKTQLADILSVLGMSYSNTSKHESLKYRLQGVTTDPSLWGHEYVRHLASEIEEEFASRQEEEAPTDDLMELALTIVPFFLTHNAEADAIDLLQELGAIEKVVPFVELDNASRVCLYITSCVNLLPFPEDVAMLRTAHAIYRKFDQLTQALNVAIRLDDMSLIKEDCEAATDPLLKKQMSYMLARQQIPMDMGDEELNDALNNTHLSDHFHYLGKELNLMDPKVPEDIFKTHLEVARTGLGASGVYSAKQNLANTFVNALVNAGYSNDRLILVDDEKTSWIYKNKESGLISATASIGLLQLWNVDMGLSLLDKYLYSSEENTKAGALLGIGVTNVAVRNEADPAMAILSEYLETGSVKLRASAILGLGLAYSGANREDLLDMLSPIVTDTDCPMQLSCLAALSLGLIFVGTCNGDVASTILQTLMEREESAQNDQWGRFMALGLALLFNGKQDLADATVETLKAIEGKIARQAEILVDICSYAGTGNVLHIQKLLHICSEPPSDDAKESETTIQTFAALGVATIAMGEDIGAEMVLRHFDHMMHYGEPSIRKAIPLALGLLSASNPQMRIFDTLSRYSHDNDLDVAYNAIFAMGLVGAGTSNARLAQLLRQLASYYHKESNALFMVRIAQGLLYLGKGTMTLNPYHTERQILGQTAFAGLMTVVLAMLDANTFVLDTSHWLLYAITLAIRPRMLITLGEDGQYLPVSVRVGQAVDVVGQAGRPKVITGWVTHTTPVLLHHNERAELATEAYTPLTSLEGIVILKKNTEDIEMTA
binding [1]: binds | binding [2]: binds
